{"source": "PubChem BioAssay AID652243 (Drosophila RNAi Screening Center, 2013)", "screen": "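Knock-downs that decrease or increase androgen receptor reporter signal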 (primary screen)", "system": "Drosophila S2R+ cells", "reagents": "long dsRNA against Drosophila genes", "time to read-out": "72 h (48 h, then 24 h hormone)", "conditions": "synthetic androgen R1881 at 10 nM for 24 h", "measurement": "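Per-well raw luminescence of the androgen-driven firefly reporter and of the Renilla control, two replicates each, without normalisation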", "scale": "firefly reporter light: higher = more light from androgen-responsive reporter; Renilla control light: higher = more constitutive control signal (cell number, transfection)", "call rule": "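Hit when the log firefly-to-Renilla ratio dropped or increased by a fixed fold versus the mean of GFP or LacZ controls across duplicate plates; lowering cut given as 1.5 and as 3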", "meaning of the calls": "active = hit: reporter lowered or raised; inactive = no hit", "note": "In all, the deposit lists about 24,000 reagents; this is a random part of those with a known target gene and a result. In the full data, 246 (1%) were called active. 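Plates not normalised; calls are printed but the firefly/Renilla ratio behind them is not deposited; fold cut for lowering reported inconsistently.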 Raw values vary from plate to plate and are shown uncorrected. Reagents against one gene are numbered here. No sequences are given here. Not stated in the record: the amount of reagent."}
{"Target gene": "Max (GeneID 40095)", "reagent no.": 1, "firefly reporter light, replicate 1": 58394, "firefly reporter light, replicate 2": 42092, "Renilla control light, replicate 1": 8.83e5, "Renilla control light, replicate 2": 6.21e5, "outcome": "inactive"}
{"Target gene": "CG5039 (GeneID 43100)", "reagent no.": 1, "firefly reporter light, replicate 1": 2.07e5, "firefly reporter light, replicate 2": 2.19e5, "Renilla control light, replicate 1": 2.95e6, "Renilla control light, replicate 2": 2.57e6, "outcome": "inactive"}
{"Target gene": "CG5039 (GeneID 43100)", "reagent no.": 2, "firefly reporter light, replicate 1": 3.49e5, "firefly reporter light, replicate 2": 2.70e5, "Renilla control light, replicate 1": 7.07e5, "Renilla control light, replicate 2": 6.96e5, "outcome": "inactive"}
{"Target gene": "IKKbeta (GeneID 44432)", "reagent no.": 1, "firefly reporter light, replicate 1": 74548, "firefly reporter light, replicate 2": 1.34e5, "Renilla control light, replicate 1": 7.48e5, "Renilla control light, replicate 2": 6.30e5, "outcome": "inactive"}
{"Target gene": "IKKbeta (GeneID 44432)", "reagent no.": 2, "outcome": "inactive"}
{"Target gene": "IKKbeta (GeneID 44432)", "reagent no.": 3, "outcome": "inactive"}
{"Target gene": "CG8958 (GeneID 32575)", "reagent no.": 1, "firefly reporter light, replicate 1": 6.55e5, "firefly reporter light, replicate 2": 6.21e5, "Renilla control light, replicate 1": 3.66e6, "Renilla control light, replicate 2": 3.43e6, "outcome": "inactive"}
{"Target gene": "CG8958 (GeneID 32575)", "reagent no.": 2, "firefly reporter light, replicate 1": 5.00e5, "firefly reporter light, replicate 2": 5.07e5, "Renilla control light, replicate 1": 1.04e6, "Renilla control light, replicate 2": 1.04e6, "outcome": "inactive"}

Looked up above:
Value for IKKbeta (GeneID 44432) #3 under “outcome”: inactive
Under “outcome”, CG8958 (GeneID 32575) #1 has inactive

Additional entries follow:
{"Target gene": "Vps36 (GeneID 39523)", "reagent no.": 1, "firefly reporter light, replicate 1": 1.80e5, "firefly reporter light, replicate 2": 1.94e5, "Renilla control light, replicate 1": 2.41e6, "Renilla control light, replicate 2": 2.38e6, "outcome": "inactive"}
{"Target gene": "CG13766 (GeneID 33922)", "reagent no.": 1, "firefly reporter light, replicate 1": 1.77e5, "firefly reporter light, replicate 2": 1.39e5, "Renilla control light, replicate 1": 1.17e6, "Renilla control light, replicate 2": 1.07e6, "outcome": "inactive"}
{"Target gene": "CG13766 (GeneID 33922)", "reagent no.": 2, "firefly reporter light, replicate 1": 7.72e5, "firefly reporter light, replicate 2": 5.17e5, "Renilla control light, replicate 1": 1.70e6, "Renilla control light, replicate 2": 1.37e6, "outcome": "inactive"}
{"Target gene": "mus101 (GeneID 48309)", "reagent no.": 1, "firefly reporter light, replicate 1": 5.50e5, "firefly reporter light, replicate 2": 6.27e5, "Renilla control light, replicate 1": 2.42e6, "Renilla control light, replicate 2": 3.66e6, "outcome": "inactive"}
